# Results: US5580953A (Amylin Pharmaceuticals, Inc., priority 1991, dated 1996)
# Assay: Boc solid-phase peptide synthesis; 4-methylbenzhydrylamine resin; NMP/HOBt (Option 1) system; dicyclohexylcarbodiimide and 1-hydroxybenzotriazole
# Settings: whole synthesis, scale 0.5 mmol
substance,measurement,setting,value
PEPTIDE1{V.L.G.K.L.S.Q.E.L.H.K.L.Q.T.Y.P.R.T.N.T.G.S.G.T.P.[am]}$$$$V2.0,final HPLC purity,"analytical RP-HPLC on C4, C8 or C18 column (Vydac)",99%
same,isolated mass,,98 mg

# Some peptides are written in HELM: one residue between dots, names in brackets for other building blocks, links after the first $.
